Data source: PubChem BioAssay AID743454 (Peter MacCallum Cancer Centre, 2014)
Screen: 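Genes whose loss kills vorinostat-resistant colon cancer cells under vorinostat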 (primary screen). Cell system: human HCT116-VR colon cancer cells, selected for vorinostat resistance. Reagents: siRNA pool against human genes, 40 nM siRNA pool. Time to read-out: vorinostat for 24 h, read-out about 72 h after transfection. Challenge: vorinostat at 2.5 µM final. Measurement: 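Two measures, CellTiter-Fluor viability and luminescent caspase 3/7 activity, each as fold change against same-plate mock wells, mean of duplicates, then screen-wide robust z-score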. Scale: viability robust z-score: higher = more viable cells than screen typical; caspase robust z-score: higher = more caspase 3/7 activity than screen typical. Call rule: 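a knock-down is a hit when classed RV1 or RV2 for lowered viability, or CA1 or CA2 for caspase activation; those lethal without drug were dropped; hits were retested singly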.
Shown is a random part of about 18,000 reagents. 450 of them (2.5%) were called active. 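Single biological run; no consistent viability z cut-off exists, so the class columns, not z-scores, define the calls.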 No sequences are given here.

target,viability hit class,caspase hit class,viability robust z-score,caspase robust z-score,activity call
PMAIP1 (GeneID 5366),no change,no change,0.32,-0.84,inactive
CYGB (GeneID 114757),no change,no change,0,-0.18,inactive
CHL1 (GeneID 10752),no change,no change,-0.05,-0.08,inactive
ABLIM3 (GeneID 22885),no change,no change,-1.38,-0.38,inactive
ARMH4 (GeneID 145407),no change,no change,1.18,0.55,inactive
ZNF385B (GeneID 151126),no change,no change,-0.22,-0.39,inactive
RPL21 (GeneID 6144),no change,no change,-5.9,0,inactive
PPP3CB (GeneID 5532),no change,no change,0.31,0.57,inactive
ALG6 (GeneID 29929),no change,no change,1.47,-0.3,inactive
SLC7A4 (GeneID 6545),no change,no change,-0.68,1.84,inactive
INO80 (GeneID 54617),no change,no change,-0.16,1.58,inactive
FUT6 (GeneID 2528),no change,no change,-1.25,1.5,inactive
RETREG1 (GeneID 54463),no change,no change,1.4,1.82,inactive
MEF2D (GeneID 4209),no change,no change,0.36,2.58,inactive
TSPYL5 (GeneID 85453),no change,no change,-0.06,-0.23,inactive
CXorf65 (GeneID 158830),no change,no change,0.66,0.56,inactive
IKZF4 (GeneID 64375),no change,no change,-1.55,0.11,inactive
MCM4 (GeneID 4173),no change,no change,-1.06,-0.06,inactive
TENT2 (GeneID 167153),no change,no change,0.04,-0.65,inactive
PFKFB1 (GeneID 5207),no change,no change,-1.83,2.25,inactive
MFSD8 (GeneID 256471),no change,no change,0.08,-0.64,inactive
CUZD1 (GeneID 50624),no change,no change,0.47,-0.76,inactive
THEMIS (GeneID 387357),no change,no change,1.67,0.88,inactive
DRC12 (GeneID 283152),no change,no change,0.24,-0.35,inactive
TNS4 (GeneID 84951),no change,no change,0.45,0.09,inactive
IL33R (GeneID 9173),no change,no change,0.01,1.46,inactive
SLC25A51 (GeneID 92014),no change,no change,0.89,0.08,inactive
ZSWIM7 (GeneID 125150),no change,no change,0.42,0.17,inactive
TMEM167B (GeneID 56900),no change,no change,-0.84,1.43,inactive
TRA2A (GeneID 29896),no change,no change,0.36,-0.78,inactive

A stretch taken from the entries so far:
target,viability hit class,caspase hit class,viability robust z-score,caspase robust z-score,activity call
IKZF4 (GeneID 64375),no change,no change,-1.55,0.11,inactive
MCM4 (GeneID 4173),no change,no change,-1.06,-0.06,inactive
TENT2 (GeneID 167153),no change,no change,0.04,-0.65,inactive
PFKFB1 (GeneID 5207),no change,no change,-1.83,2.25,inactive

Next results follow:
target,viability hit class,caspase hit class,viability robust z-score,caspase robust z-score,activity call
BLOC1S5 (GeneID 63915),no change,no change,0.84,-0.49,inactive
OR1G1 (GeneID 8390),no change,no change,-0.31,2.29,inactive
PDZD2 (GeneID 23037),no change,no change,-0.74,-0.1,inactive
ATL2 (GeneID 64225),no change,no change,-0.36,1.54,inactive
BIRC8 (GeneID 112401),no change,no change,1.19,-0.26,inactive
NUFIP2 (GeneID 57532),no change,no change,-1.19,-0.15,inactive
PALLD (GeneID 23022),no change,no change,0.32,0.27,inactive
H2BC18 (GeneID 440689),no change,no change,1.45,0.13,inactive
LIAS (GeneID 11019),no change,no change,-0.84,-1.03,inactive
ECT2L (GeneID 345930),no change,no change,0.05,-1.29,inactive
SPEF1 (GeneID 25876),no change,no change,0.19,-0.94,inactive
TNFAIP8 (GeneID 25816),no change,no change,0,-0.4,inactive
DENND5B (GeneID 160518),no change,no change,-0.06,-0.77,inactive
ATP5MK (GeneID 84833),no change,no change,-0.05,-0.56,inactive
EVA1A (GeneID 84141),no change,no change,-0.64,3.44,inactive
SLC33A2 (GeneID 113655),no change,no change,0.02,1.34,inactive
MCRS1 (GeneID 10445),no change,no change,-0.66,-0.22,inactive
PSG9 (GeneID 5678),no change,no change,0.26,-0.28,inactive
GTSF1 (GeneID 121355),no change,no change,1.02,4.64,inactive
MEST (GeneID 4232),no change,no change,0,1.23,inactive
RALGPS1 (GeneID 9649),no change,no change,1.02,-0.66,inactive
EPHA10 (GeneID 284656),no change,no change,-0.81,-0.48,inactive
IDI2 (GeneID 91734),no change,no change,0.04,-0.1,inactive
AMBN (GeneID 258),no change,no change,1.51,-0.8,inactive
CD44 (GeneID 960),no change,no change,1.28,1.16,inactive
AKR7A2 (GeneID 8574),no change,no change,-0.47,-0.44,inactive
CD79A (GeneID 973),no change,CA2 (caspase activation),-0.61,6.58,active
